Data published in publication PMC5385552.
Results are given in words; binding and its absence hold for the method and conditions named. In cells and extracts the contact can be indirect. A yes stands for co-enrichment or nearness to the bait. Other partners may have been found. Tags and fused reporters may be left off the sequences shown.

Biological target: T1, GST-fused recombinant LIMR (lipocalin-1 interacting membrane receptor) (UniProt Q6UX01)
T1 sequence: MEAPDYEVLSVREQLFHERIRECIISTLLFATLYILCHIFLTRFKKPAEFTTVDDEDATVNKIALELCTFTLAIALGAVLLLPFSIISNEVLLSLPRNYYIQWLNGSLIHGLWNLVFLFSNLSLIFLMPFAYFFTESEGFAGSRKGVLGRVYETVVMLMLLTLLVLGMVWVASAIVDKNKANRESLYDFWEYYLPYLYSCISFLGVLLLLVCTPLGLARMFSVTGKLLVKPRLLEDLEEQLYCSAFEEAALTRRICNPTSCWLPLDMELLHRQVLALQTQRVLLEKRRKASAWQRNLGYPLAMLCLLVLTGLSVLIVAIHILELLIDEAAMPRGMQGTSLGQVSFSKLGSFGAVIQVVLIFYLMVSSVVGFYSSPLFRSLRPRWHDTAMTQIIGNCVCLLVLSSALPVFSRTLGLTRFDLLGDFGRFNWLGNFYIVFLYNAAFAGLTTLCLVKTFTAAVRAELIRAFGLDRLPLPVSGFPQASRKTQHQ
Assay: affinity purification with mass spectrometry; GST pull-down: 10 ug purified GST-LIMR (or control GST) incubated with 1 mg THP-1 cell lysate at 4 °C for 2 h; SDS-PAGE, Coomassie staining, band identified by mass spectrometry; only the target purified

- binding: binds
B1: aryl hydrocarbon receptor repressor (AHRR), endogenous in THP-1 cells (protein, UniProt A9YTQ3 1-697)
chain: MIPPGECTYAGRKRRRPLQKQRPAVGAEKSNPSKRHRDRLNAELDHLASLLPFPPDIISKLDKLSVLRLSVSYLRVKSFFQVVQEQSSRQPAAGAPSPGDSCPLAGSAVLEGRLLLESLNGFALVVSAEGTIFYASATIVDYLGFHQTDVMHQNIYDYIHVDDRQDFCRQLHWAMDPPQVVFGQPPPLETGDDAILGRLLRAQEWGTGTPTEYSAFLTRCFICRVRCLLDSTSGFLTMQFQGKLKFLFGQKKKAPSGAMLPPRLSLFCIAAPVLLPSAAEMKMRSALLRAKPRADTAATADAKVKATTSLCESELHGKPNYSAGRSSRESGVLVLREQTDAGRWAQVPARAPCLCLRGGPDLVLDPKGGSGDREEEQHRMLSRASGVTGRRETPGPTKPLPWTAGKHSEDGARPRLQPSKNDPPSLRPMPRGSCLPCPCVQGTFRNSPISHPPSPSPSAYSSRTSRPMRDVGEDQVHPPLCHFPQRSLQHQLPQPGAQRFATRGYPMEDMKLQGVPMPPGDLCGPTLLLDVSIKMEKDSGCEGAADGCVPSQVWLGASDRSHPATFPTRMHLKTEPDSRQQVYISHLGHGVRGAQPHGRATAGRSRELTPFHPAHCACLEPTDGLPQSEPPHQLCARGRGEQSCTCRAAEAAPVVKREPLDSPQWATHSQGMVPGMLPKSALATLVPPQASGCTFLP
